Results are given in words; binding and its absence hold for the method and conditions named.
Biological target: MCPIP1 PIN-D141N (human) (UniProt Q5D1E8)
Assay: native gel or EMSA; increasing amounts of purified protein (0-200 pmol) incubated with 2 pmol in vitro transcribed 3'UTR fragments of C/EBPβ mRNA; 25 mM Tris, 150 mM NaCl, 2.5 mM MgCl2, 2.5 mM DTT, 0.5 mM EDTA, 0.025 mM ZnCl2, pH 8.3; on ice 20 min; 0.8% agarose gel in TAE; oligomers read from heavier protein-RNA complexes; both purified

B1: MCPIP1 PIN-D141N (domain or fragment, UniProt Q5D1E8 134-327)
chain: DLRPVVINGSNVAMSHGNKEVFSCRGILLAVNWFLERGHTDITVFVPSWRKEQPRPDVPITDQHILRELEKKKILVFTPSRRVGGKRVVCYDDRFIVKLAYESDGIVVSNDTYRDLQGERQEWKRFIEERLLMYSFVNDKFMPPDDPLGRHGPSLDNFLRKKPLTLEHRKQPCPYGRKCTYGIKCRFFHPERPS
binding: no binding (tested: 200 pmol)

— article PMC5362230, “MCPIP1, alias Regnase-1 binds and cleaves mRNA of C/EBPβ” (PLoS ONE, 2017)
